Laboratory results taken from patent US8592422B2, “Bicyclic triazole and pyrazole lactams as allosteric modulators of mGluR5 receptors” (Vanderbilt University, priority 2010, dated 2013).
The match of structure and compound is tentative.

The chains behind the UniProt entries cited, without tags or fusion partners. Residues count along the entry.
UniProt P41594, 21-1180 isoform 2 limits assumed: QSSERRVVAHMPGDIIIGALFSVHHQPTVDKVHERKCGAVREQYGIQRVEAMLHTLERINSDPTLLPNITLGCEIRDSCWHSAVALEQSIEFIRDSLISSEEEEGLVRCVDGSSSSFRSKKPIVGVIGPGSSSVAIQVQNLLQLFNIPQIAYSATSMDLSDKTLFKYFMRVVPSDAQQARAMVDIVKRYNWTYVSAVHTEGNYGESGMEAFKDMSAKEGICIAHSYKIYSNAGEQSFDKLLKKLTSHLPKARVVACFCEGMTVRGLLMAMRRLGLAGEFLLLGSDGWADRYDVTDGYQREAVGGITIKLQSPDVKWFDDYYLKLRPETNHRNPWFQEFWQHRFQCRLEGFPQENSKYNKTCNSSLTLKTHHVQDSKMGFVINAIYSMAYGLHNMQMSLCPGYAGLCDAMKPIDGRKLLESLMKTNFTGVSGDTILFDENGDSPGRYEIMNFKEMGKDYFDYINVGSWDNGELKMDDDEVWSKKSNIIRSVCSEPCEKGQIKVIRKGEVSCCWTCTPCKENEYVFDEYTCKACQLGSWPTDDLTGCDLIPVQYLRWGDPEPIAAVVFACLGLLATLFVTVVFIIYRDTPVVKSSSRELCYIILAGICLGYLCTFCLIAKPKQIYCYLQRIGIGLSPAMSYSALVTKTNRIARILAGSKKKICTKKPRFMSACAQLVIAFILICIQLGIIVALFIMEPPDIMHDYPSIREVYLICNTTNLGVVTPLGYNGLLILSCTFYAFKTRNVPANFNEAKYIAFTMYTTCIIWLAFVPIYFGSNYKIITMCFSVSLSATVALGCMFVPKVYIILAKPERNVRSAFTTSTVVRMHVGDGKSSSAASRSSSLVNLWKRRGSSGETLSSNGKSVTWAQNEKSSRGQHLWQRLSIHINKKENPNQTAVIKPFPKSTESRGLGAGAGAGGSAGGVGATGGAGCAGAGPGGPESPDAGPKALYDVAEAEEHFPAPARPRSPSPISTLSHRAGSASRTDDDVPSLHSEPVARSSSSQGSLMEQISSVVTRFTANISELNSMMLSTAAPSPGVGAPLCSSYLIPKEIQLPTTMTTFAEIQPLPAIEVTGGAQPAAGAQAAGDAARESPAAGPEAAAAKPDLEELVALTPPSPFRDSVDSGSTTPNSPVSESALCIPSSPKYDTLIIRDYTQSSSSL

Molecular target: human mGluR5a receptor (Homo sapiens, UniProt P41594)
Assay: Cell-based functional Ca2+ mobilization assay (FDSS), potentiation of glutamate EC20 response
[1] = HEK cells transfected with human mGluR5 (H10H or H12H), in presence of EC20 glutamate

Q: What does the source list for `COc1ncccc1N1CCn2nc(COc3ccccc3)cc2C1=O`?
A: EC50 [1]: 195 nM; pEC50 [1]: 6.71; Emax (%) (maximum % effect in concentration-response curve, as percent of response to maximally effective glutamate): 68%
